Residue numbers refer to the chain shown, from its start. Construct, isoform or probe ends are uncertain for at least one entry. For part of these data: Tags and fusion partners may be left off the protein sequences shown.

Holding throughout (test): EMSA
For one data set, the system named is GFP control. The note with it: 20 mM Tris-Cl pH 8.0, 1 mM EDTA, 5 ug/mL calf thymus DNA, 10 nM DNA, 0.11-0.13 uM protein, 30 min at 20 C; gels at 4 C; recombinant protein; label: 5'-32P upper strand; counted as no binding.
Data set [1] concerns the target T1, OrfAB-GFP GMF13 S57G S72G (UniProt P51026).
T1 sequence (looked up, limits assumed): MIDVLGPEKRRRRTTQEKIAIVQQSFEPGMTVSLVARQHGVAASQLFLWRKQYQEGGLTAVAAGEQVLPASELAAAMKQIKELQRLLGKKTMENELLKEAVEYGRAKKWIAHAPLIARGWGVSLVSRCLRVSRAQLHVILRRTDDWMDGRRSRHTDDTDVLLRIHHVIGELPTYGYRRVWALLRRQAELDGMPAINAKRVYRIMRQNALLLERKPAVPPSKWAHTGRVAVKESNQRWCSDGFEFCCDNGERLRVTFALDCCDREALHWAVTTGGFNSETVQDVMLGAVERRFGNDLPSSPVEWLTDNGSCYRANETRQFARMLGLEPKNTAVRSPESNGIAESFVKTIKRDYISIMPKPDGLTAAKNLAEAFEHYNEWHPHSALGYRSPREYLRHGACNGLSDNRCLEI
The note with it: 20 mM Tris-Cl pH 8.0, 1 mM EDTA, 5 ug/mL calf thymus DNA, 10 nM DNA, 0.11-0.13 uM protein, 30 min at 20 C; gels at 4 C; recombinant protein; protein details: 6xHis, C-terminal GFPuv; label: 5'-32P upper strand.

The target in data set [2] is T2, OrfAB-GFP GMF18 A42T/L97H A57T,L112H (UniProt P51026).
T2 sequence (looked up, limits assumed): T1 sequence (looked up, limits assumed) with A42T, G57S, L97H
The note with it: 20 mM Tris-Cl pH 8.0, 1 mM EDTA, 5 ug/mL calf thymus DNA, 10 nM DNA, 0.11-0.13 uM protein, 30 min at 20 C; gels at 4 C; recombinant protein; protein details: 6xHis, C-terminal GFPuv; label: 5'-32P upper strand.

In data set [3] the target is T3, OrfAB-GFP GMF3 R291H R306H (UniProt P51026).
T3 sequence (looked up, limits assumed): T1 sequence (looked up, limits assumed) with G57S, R291H
The note with it: 20 mM Tris-Cl pH 8.0, 1 mM EDTA, 5 ug/mL calf thymus DNA, 10 nM DNA, 0.11-0.13 uM protein, 30 min at 20 C; gels at 4 C; recombinant protein; protein details: 6xHis, C-terminal GFPuv; label: 5'-32P upper strand.

The target of data set [4] is T4, OrfAB-GFP GMF40 V35L V50L (UniProt P51026).
T4 sequence (looked up, limits assumed): T1 sequence (looked up, limits assumed) with V35L, G57S
The note with it: 20 mM Tris-Cl pH 8.0, 1 mM EDTA, 5 ug/mL calf thymus DNA, 10 nM DNA, 0.11-0.13 uM protein, 30 min at 20 C; gels at 4 C; recombinant protein; protein details: 6xHis, C-terminal GFPuv; label: 5'-32P upper strand.

A further data set concerns the target T5, OrfAB-GFP GMF9 R50H R65H (UniProt P51026).
T5 sequence (looked up, limits assumed): T1 sequence (looked up, limits assumed) with R50H, G57S
As to conditions: 20 mM Tris-Cl pH 8.0, 1 mM EDTA, 5 ug/mL calf thymus DNA, 10 nM DNA, 0.11-0.13 uM protein, 30 min at 20 C; gels at 4 C; recombinant protein; protein details: 6xHis, C-terminal GFPuv; label: 5'-32P upper strand.

Turning to “GGATCCTTAAGTGATAACAGATGTCTGGAAATATAGGGGCAAATCCAGCG (double strand) [IRR 50-mer]”, the binding signal (binding score (0-5)) in the data set with GFP control came to 0; in data set [1], 3; in data set [2] it was 3.5; in data set [3], 2.5; in data set [4] it was 4; with OrfAB-GFP GMF9 R50H R65H, 3.

The record behind these values is article PMC3219604.
